The subject of this series is BALB/3T3 clone A31. Nature of the series: in vitro 3T3 NRU phototoxicity test. The format is cell-based. The method, then: This test was to evaluate phototoxicity after treating cells of BALB/3T3 clone A31 with a sample in the in vitro 3T3 NRU phototoxicity test. The phototoxicity was identified by evaluating cell viability, IC50 according to the presence or absence of light irradiation, and phototoxicity according to concentration response [photo irritation factor (PIF), and mean photo effect (MPE)].
In addition, as a negative control group, PBS diluted in DMEM was used.
Each of test substances was dissolved in PBS and diluted in steps at […] 2.
UVA (315-400 nm) causing a phototoxic reaction by activating chemical materials without toxicity to cells was irradiated, and the amount of light was 5 J/cm^2.
100 μl of cell suspension (1×10^4 cells/well) and medium were dispensed into two 96 well plates per group, and the cells were cultured for 24 hours in a cell incubator at 37° C. and 5% CO^2.
After removing the medium, the cells were washed once with 150 μl of warm PBS.
The UV irradiation plate was irradiated with UVA at a light intensity of 5 J/cm^2, and while UV was irradiated, the non-irradiated plate was shielded with aluminum foil and left at room temperature. After removing the solution, washing was performed twice with 150 μl of warm PBS. 100 μl of the medium was dispensed and the cells were cultured for 20±2 hours in a cell incubator at 37° C. and 5% CO2.
The growth and morphology of the cells were observed using a microscope, the medium was removed therefrom, and then the cells were washed once with 150 μl of warm PBS. After dispensing 100 μl of neutral red medium, the cells were incubated for 3 hours in a cell incubator at 37° C. and 5% CO2. After removing the neutral red medium, the cells were washed once with 150 μl of warm PBS. 150 μl of neutral red extract was dispensed, and the plate was stirred for 10 minutes while light was shielded.
Absorbance was measured at a wavelength of 540 nm by using a multi-channel microplate reader.
Phototoxicity was judged by calculating PIF and MPE values using IC50 according to the presence or absence of light irradiation.
PIF and MPE values were calculated from the measured absorbance values by using the software (Phototox 2.6, ZEBET at the BFR, Berlin Germany), and no statistical method was performed.

Data on one compound can be found in US20230220122A1, “METHOD FOR PRODUCTION OF FUNCTIONAL POLYSACCHARIDE AND COSMETIC COMPOSITION” (CARBOEXPERT INC., priority 2019, published 2023).

With `CN(C)CCCN1c2ccccc2Sc2ccc(Cl)cc21` [CPZ], the “OD540 Mean” value is, setting by setting: (UV (+), 0.04 μg/mL) 0.528; (UV (+), 0.08 μg/mL) 0.456; (UV (+), 0.16 μg/mL) 0.508; (UV (+), 0.31 μg/mL) 0.549; (UV (+), 0.63 μg/mL) 0.530; (UV (+), 2.5 μg/mL) 0.059. Also, the “OD540 Mean” value (UV (+), 5 μg/mL) is on record as 0.063; the “OD540 Mean” value (UV (−), 1.56 μg/mL) is given as 0.589; the “OD540 Mean” value (UV (−), 3.13 μg/mL) turned out to be 0.554; the “OD540 Mean” value (UV (−), 6.25 μg/mL) was determined as 0.617; the “OD540 Mean” value (UV (−), 25 μg/mL) worked out at 0.352; the “OD540 Mean” value (UV (−), 50 μg/mL) stood at 0.051. Also, the “OD540 Mean” value was 0.050 (UV (−), 100 μg/mL) and 0.050 (UV (−), 200 μg/mL).
